Our source for the z-score values is PubChem BioAssay AID1508600 (Functional Genomics Laboratory (NCATS/FGL), 2020).

Screen size: about 53,000 sequences; about 3,700 (7%) were called active.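 How the source made its calls: active means gene knockdowns whose robust z-score for IL-1 alpha signal is at least 2 or at most -2, so actives lie on both sides; inactive means the rest.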 The list shows a part of the results.

The assay can be described thus: Components of the Cytosolic LPS Sensing Pathway: Gene Identification via Genome-wide siRNA Screen.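 Further: robust z of the log signal after scaling to non-targeting control siRNA wells of the plate.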 The note with it: RAW264.7 macrophages, IL-1a HTRF, actives lie on both sides, screened at 100 nM (by protocol), cells primed 5 h with Pam3CSK4 first. The gist of the method:
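Supernatant IL-1a by HTRF from RAW264.7 cells primed with Pam3CSK4 (5 hours) and transfected with LipidA (24 hour) after 48h siRNA knockdown at 100 nM; cell viability checked with CellTiter-Glo.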
GGGAGUGACUCAGAUCGAUTT against Atp6v1c1: the z-score was inactive: -0.157. To CGGGAAGUAGUGCAACACCTT against Taldo1 belongs inactive: -0.902; to GGAGCUGAUAAAUCUGAACTT against Dhrs7, inactive: 1.68; to GGAACAGCAGCCUGAAUGATT against B4galt5, inactive: -0.65.

For the sequence CCCUGCCCGGGUUUUUAUATT against Tspan9, the z-score is inactive: 0.0317. Take CGAAUUCAAUGUGCAUUAGTT against Tmem232: the z-score is inactive: -0.442. In the case of GGAAGAACUAAAGAGUCUUTT against Elavl2, the z-score was inactive: -0.692.

With GGGUGAUGAUGGAUUCUGUTT against Eef1g, the z-score is inactive: 1.04. As for GGAGUAAACCUACUGCUCATT against Esam, the z-score is active: 2.14. To GGAUCAAAUCAAGAAGAUGTT against Chmp5 belongs inactive: 0.627.

For the sequence GGUUUUUUUGAGUUUCAGGTT against Lars, the z-score is inactive: -0.405. Turning to GGACAGCCACCCAUCUGAATT against Ddx59, the z-score was inactive: 0.465. For the sequence GGAUCAUAUAUGAAGCACATT against Mybl1, the z-score was active: -2.16. The value for GGCUUCAAACACUUCCUUGTT against Sh2d4b was inactive: 0.818; that for CCUGUAGGUGGAAUAAACATT against Awat2 was active: -2.28. Take GGAGUUUGUUGGAGCCAUUTT against Unc79: the z-score was inactive: 0.0777. GGUGACAACCAUGAUCUCCTT against C1qtnf2: the z-score is inactive: -0.153.

As for GGUUUCCAGAAGAAGGUUCTT against Rbm26, the z-score was inactive: 0.621. Regarding GGACCGCCGUGUAAUGAUCTT against Kat6b, the z-score was inactive: -0.513. The value for GCCAAUAAACCCGUUUUUATT against Timm10b was inactive: 0.0478; that for GGUGGAGAGGGACAACUUUTT against Gfap was inactive: 1.39; that for GGAUGAUCACAUCGAUUGGTT against Vps41 was inactive: 0.0283. Regarding GCAGUUUUAUAAUCCUAGUTT against Eloa, the z-score is inactive: -0.134.

Take GGUUCCUCUCCUCCUGAUATT against Olfr1444: the z-score was inactive: -0.261. For GCAGUAGUAACUGCUUGAGTT against Saa2, the z-score was inactive: -1.29. The value for GCCCUGUACACGGUAAACUTT against Ackr4 was inactive: 1.05; that for GCAAUAGCAAAACGACUAATT against Nrk was inactive: 0.517; that for GCGUGUGACUUACAAGGAATT against Mapk12 was inactive: -0.369. Take GCAUUUAUAAUUGCUGAACTT against Cbx1: the z-score is inactive: -0.637. Turning to CCCUUAUGAACCCAUAAAGTT against Oasl1, the z-score was inactive: -1.02. Consider GGAAUCUAGGAUUCCACAGTT against Tbxa2r, for which the z-score is inactive: -1.24. With GGCUUAAACACCUCCAAUGTT against Ctnnd2, the z-score was inactive: -0.232. For the sequence GCUAUGUGUUGAUUUAAAGTT against Pdk1, the z-score is inactive: 0.422. Take GGCAUUGAAGACAAGACCCTT against Mtpap: the z-score was inactive: -0.188. CAAAUCAAGAGCCUCUAUGTT against Acsl5: the z-score was inactive: 0.548.

CCAUGUCUAUGAGUGUAGATT against Camsap3: the z-score is inactive: 1.55. Regarding GCCCACCAUUCAGAUAGAGTT against Tacstd2, the z-score is inactive: 0.0833. CCUUUGACUUCACUAUUGATT against Map4k2: the z-score is inactive: 0.599. CGCGGUAUUCUCCUUGAAGTT against Ccr4: the z-score was inactive: 1.07.

As to GCCGAGCUCAAAACACAACTT against Txnl4a, the z-score is inactive: 0.948. In the case of GGAGUUUGAACGUGAGCGGTT against Ndufb7, the z-score was inactive: 0.583.

With GUCAUUUUGCUAGUGGUGATT against Olfr142, the z-score is inactive: 0.344. On to GGCUAUUGACUUCAUAGACTT against Dusp1, for which the z-score is inactive: -0.0378. CCUUAUAGCAUAAGCUUUATT against Olfr768: the z-score is active: 2.04. Take GGACAGCAACUAACAUUCATT against Ccdc84: the z-score is inactive: 0.869. The value for GCCAUUUCCUUCAGUAGUATT against Olfr1355 was inactive: 0.922. Consider GCAUAUGCGAACAGUAAAATT against Rab28, for which the z-score is inactive: -0.182.

For CGCAGAUAAUAUCUUUGUCTT against Olfr461, the z-score was inactive: 0.389.

For GGUGUAUUGAGCUAAACAUTT against Rnft2, the z-score is inactive: -0.344. For the sequence GGGCAUCAUGAAACUAUGUTT against Kbtbd4, the z-score was active: -2.59.

CCAGCGACUACAGCAAAUATT against Gcg: the z-score was inactive: 0.968.

Take GGACGGCUCUAAAGAUGAGTT against Spin1: the z-score was inactive: -1.41. With GCUUUUAUACACUUCCCUCTT against Nmt1, the z-score was inactive: 0.834. CCUACCCUACUAAUGAAUUTT against Cldn4: the z-score is inactive: 0.0496.

For the sequence GCCCAUCAGUGAGGUGCUATT against Adh7, the z-score is inactive: -0.451. As to GCAAAGACAAUCUUUAAGGTT against Pde4d, the z-score is inactive: -0.747. Take GCUGCCUACACCUUUUACGTT against Abhd8: the z-score was inactive: 0.0117. Consider “GCAUUAAAAACCCUUUUUGTT against B230354K17Rik”, for which the z-score is inactive: 1.68. On to GCCUUGCUGCCAGAACCUATT against Sumf2, for which the z-score is inactive: -0.171. Take GCAUAAGUCCCUCUUAGUGTT against Slc6a7: the z-score was inactive: 0.177. CGAACAGUCUGUAUGGCGATT against Jak1: the z-score is inactive: 1.07.

GGAAGACAGGGACAAUACCTT against Car15: the z-score is active: -2.36. With CGAGUGUUGAAUAUUGUGATT against Gpr65, the z-score was inactive: 0.158. On to GCCAGCUACUCUCUUGAGATT against Olfr419, for which the z-score is inactive: -1.03.

For the sequence GCCCACAUCUGAUCUUAAATT against Tor1aip2, the z-score was inactive: -1.59. In the case of AUCUCUCGGUGGUGGACUGTT against Olfr1474, the z-score is inactive: 0.583.

On to CUGCUUUUGAGUCUGGCGATT against Irgc1, for which the z-score is inactive: -0.115. On to GCUAUUGGACAGCUUCUACTT against Olfr1313, for which the z-score is inactive: -0.0581. To GGAUAGCGUGAAAUGAUUATT against Cyb5r1 belongs inactive: 1.02. The value for GGGACUGAAUUUAGUUUCATT against Prx was inactive: -0.206.

CGAUAAGAAAAGCUUGUUGTT against Nub1: the z-score is inactive: -0.0304. Consider GGGAAAGGAAAGAAGAAGATT against Srp19, for which the z-score is inactive: 0.257. On to GGAUGUCUCAACAUUCUUCTT against Vmn1r50, for which the z-score is inactive: 0.313. The value for CGAUCCAAUCAAAACUAGUTT against Ddx41 was inactive: -0.944; that for GAAAAAUCAUGAAGCCAUATT against Olfr203 was inactive: -0.0109. On to GGAUUACAACAACUAUGGCTT against Pla2g1b, for which the z-score is inactive: 0.288. Turning to GGGCUGAUCUGGAUCAAUATT against Irf1, the z-score was inactive: 0.129. Consider GGAGAUAAGAGAUCACAUCTT against Oxnad1, for which the z-score is inactive: 0.122. To GGGUUUAUUACAAUCAAACTT against Liph belongs inactive: 1.49; to GGCCAGAACUGUUCCAAUUTT against Cilp, inactive: 1.15. For GGUUGGAUUAUUAGGAAUUTT against Dnah5, the z-score is inactive: 0.0387. As to CCCUGAUGUUCUGUUUGAATT against Uba5, the z-score is inactive: 0.687. Regarding GCUGGAACUUAGUGUUCAGTT against Kat6b, the z-score is inactive: 1.45. GGUUCAACUCUGUGGUCACTT against C1qc: the z-score is inactive: 0.247. In the case of “GGGAUUCAGACAUGUGCUGTT against 4930503E14Rik”, the z-score is inactive: -0.658. On to CCAGAUGUGAAACAUGACATT against Upk3a, for which the z-score is inactive: -1.57.

Consider CCCACUCUUUGUGUACUGATT against Olfr262, for which the z-score was active: -2.1. To CCAGCACUCGAAAAAGAUGTT against Pdzd8 belongs inactive: 0.0208. Regarding GGAAACUGGACCAGACUAUTT against Smarcd1, the z-score is inactive: -0.0183. To GGGUUGCCACAUGUUAUAUTT against Smad2 belongs inactive: -0.0821; to GCUGAACAGGUUACGAAAATT against Ints14, inactive: 1.69. For the sequence GGAAAAGUGUACGUGAUCATT against Prkce, the z-score was inactive: -1.75.

On to GGACAAGAUGCGAAAAGCATT against Tbrg4, for which the z-score was inactive: -0.861. As for CCUGUCGACGGAAUUUUAGTT against Zfp287, the z-score is inactive: -0.349. As to GGAUGAAGACAUGCUCACATT against Pcdhb6, the z-score is inactive: -0.551. Consider GGGAAUGAAAUGUUCUUCGTT against Ttl, for which the z-score was inactive: -0.121. As to CGCAAGAGAGUGGAUUUCUTT against Cpb1, the z-score was inactive: 1.2. As for GCGUACGUGAUCUCAGUCUTT against Ttll1, the z-score is inactive: -0.833. GGUCUAAGGCAUGGGUCAATT against Odf3b: the z-score was inactive: -1.18.

In the case of GGAACAGAUAACAUUAUGGTT against Cpeb3, the z-score is active: 2.79. With GGCUUUAUAUGAAACUCCUTT against Acrv1, the z-score is active: -2.01. Regarding GCCACAUUCUUCUCAACCUTT against Tas2r106, the z-score is active: -2.14. As to GGGCUUUGCUGUCUAUGCATT against Dmwd, the z-score is inactive: -0.617. On to GCCGUACAGUAAGCACUACTT against Smyd2, for which the z-score was inactive: 0.796.

GGUGCUCAAUAAAUGUAAATT against Cd151: the z-score was inactive: -1.26. Take CCAAAAAUGCAACCCUCACTT against Serinc2: the z-score is inactive: -0.308. To GCAUAAAGCACCCGGAGAGTT against Zbtb32 belongs inactive: -1.53.
